## Screening data

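A cell-based FRET test of anthrax lethal toxin entry, tracked through the 460 nm emission signal; the cell line is not named here. Each compound was tested as a concentration series from about 0.0005 to 40 µM. The number is the fitted AC50 of the 460 nm signal alone; lower values mean a more potent effect. A falling signal goes with compounds filed as inhibitors or cytotoxic, a rising one with activators or fluorescent compounds (inferred from the filed classes).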

Values are in µM. Common to all entries: measured here: 460 nm channel. Part of the compounds only, not a random draw; the main read-out is not listed here. A potency from a partial, single-point or poor curve is only a rough figure. The first word of each remark tells which way the curve ran; it can be opposite to the aim of the assay.

SMILES,AC50 (µM),remark
Fc1ccc(C(OCCCc2cnc[nH]2)c2ccc(F)cc2)cc1,15.85,"falling, partial curve, poor fit"
OCc1c[nH]c2ccccc12,31.62,"falling, single point"
CCOc1ccc(OCc2ccc(C(=O)Nc3cccc(C)n3)o2)cc1,10,"falling, single point"
CCOC(=O)N/C(N)=N/c1nc2ccccc2s1,31.62,"falling, single point"
COc1ccc(C2CC(=O)c3c([nH]c(C(=O)OC(C)C)c3C)C2)cc1OC (stereo unspecified),5.012,"rising, single point"
CC(C)=CCc1c2c(c3occ(-c4ccc(O)c(O)c4)c(=O)c3c1O)C=CC(C)(C)O2,2.512,"falling, partial curve"
Cc1ccc(SC/C(O)=C(\C#N)c2nc3ccccc3n2C)cc1,0.7943,"falling, full curve, poor fit"
COc1cccc(-n2nnc3c(=O)n(Cc4ccc(C)cc4)cnc32)c1,3.981,"falling, full curve"
CCN(CC(=O)NC1CCCC1)S(=O)(=O)c1ccc(C)cc1,0.1259,"falling, full curve"
O=C(Nc1ccc(F)cc1)N1CCN(c2nc3ccccc3s2)CC1,10,"falling, partial curve"
COc1ccc2nc(NC(=O)Cc3ccc(OC)c(S(=O)(=O)N4CCOCC4)c3)sc2c1,15.85,"rising, single point"
CCOc1cc(C(=O)N2CCC3(CC2)OCCO3)cc(OCC)c1OCC,1.585,"falling, partial curve"
CC(=O)N1CC[N+](C)(C)CC1,12.59,"falling, single point"
C/C(CCN1CCc2nc(-c3ccccc3)c(-c3ccccc3)cc2C1)=N\O[C@@H](C)c1cn([C@@H]2COC[C@@H]2O)nn1,0.07943,"rising, single point"
Cc1cc(N=Cc2cc(Br)ccc2O)no1,31.62,"falling, partial curve, poor fit"
Cc1cc(N(C)C)nc(SC(C)C)n1,0.003981,"falling, full curve, poor fit"
CCOc1ccc(OCC)c(NC(=O)CN2CCN(C(=O)c3ccco3)CC2)c1,0.003981,"rising, full curve, poor fit"
Cc1cnc(CNc2cc(-c3ccc(N(C)C)cc3)ncn2)cn1,25.12,"rising, single point"
O=C1c2ccccc2C(=O)N1CCn1c(=O)oc2ccccc21,15.85,"rising, single point"
N#CCSc1nc2cc(C(=O)N3CCC(C(N)=O)CC3)ccc2c2nc3ccccc3n12,0.3981,"rising, single point"
O=C(Cn1cnc2ccccc2c1=O)c1c[nH]c2ccccc12,31.62,"rising, single point"
Cc1ccccc1C(=O)O,31.62,"rising, single point"
COc1ccc2nc(N3CCC(C)CC3)c(C#N)cc2c1,5.012,"rising, partial curve"
COc1ccc(NC(=O)C2CCCN(S(=O)(=O)c3cccc4cccnc34)C2)cc1 (stereo unspecified),19.95,"falling, single point"
O=C(CSC1=NCCS1)Nc1nc(-c2ccccc2)cs1,19.95,"falling, single point"
COc1ccc(NC(=O)c2ccco2)cc1NC(=O)c1ccc(Br)o1,1.585,"falling, full curve"
COc1ccc(-c2csc(NC(=O)c3cc(C)on3)c2C#N)cc1OC,12.59,"rising, single point"
Cc1ccc2nc3c(cc(C(=O)NCCCn4ccnc4)n3C)c(=O)n2c1,3.162,"falling, full curve, poor fit"
COc1ccc2[nH]cc(CCNc3nc(-c4ccccc4OC)nc4ccccc34)c2c1,12.59,"falling, partial curve"
Cc1cccc(N2CCN(C(=O)C3CCCCC3)CC2)c1C,6.31,"falling, partial curve"
O=C(CN1CCOc2ccccc21)N1CCN(c2cccc(Cl)c2)CC1,15.85,"falling, single point"
CCc1ccc2[nH]c(=O)c(CN(CCN3CCCC3)C(=O)NC3CCCCC3)cc2c1,3.981,"falling, partial curve"
CCOc1ccc(NC(=O)C2CSC(c3ccncc3)=N2)cc1 (stereo unspecified),12.59,"falling, partial curve"
COCCN(C(=O)c1csnn1)C(C(=O)NC1CCCCC1)c1sccc1C (stereo unspecified),25.12,"rising, single point"
COc1ccc2[nH]cc(CCNc3ccnc(-c4ccccc4Cl)n3)c2c1,10,"falling, single point"
COc1cccc(OCC(O)CO)c1 (stereo unspecified),3.162,"falling, full curve, poor fit"
CCN(Cc1ccccc1)S(=O)(=O)c1ccc(S(=O)(=O)N2CCN(C)CC2)cc1,5.012,"falling, partial curve"
O=C(CCCOc1ccc(Cl)cc1)N1CCOCC1,0.01,"falling, full curve, poor fit"
CCON=C1C(C)(C)C(C)(C)C(C)(C)C1(C)C,1,"falling, single point"
CCOC(=O)C1C(=O)NC(N2CCN(Cc3ccccc3)CC2)=NC1c1ccco1 (stereo unspecified),0.003162,"falling, full curve, poor fit"
N#CC1=C(N)Oc2c(c(=O)oc3ccccc23)C1c1ccc(OC(=O)N2CCOCC2)cc1 (stereo unspecified),0.3162,"rising, partial curve, poor fit"
CN1CCN(c2ccccc2NC(=O)c2cc(Br)ccc2Cl)CC1,0.005012,"falling, full curve, poor fit"
CCC1(CC)Cc2ccccc2C(N)=C1C#N,12.59,"falling, partial curve"
CCOC(=O)N1CCC(Nc2c(Nc3cccc(CC)c3)c(=O)c2=O)CC1,3.162,"rising, single point"
O=C(NCCc1ccccc1)C1CCCN(S(=O)(=O)c2cccc3nsnc23)C1 (stereo unspecified),10,"falling, partial curve, poor fit"

Some entries from above, unchanged:

| SMILES | AC50 (µM) | remark |
|---|---|---|
| `COc1ccc2[nH]cc(CCNc3nc(-c4ccccc4OC)nc4ccccc34)c2c1` | 12.59 | falling, partial curve |
| `CCOc1ccc(OCc2ccc(C(=O)Nc3cccc(C)n3)o2)cc1` | 10 | falling, single point |
| `CCOC(=O)N1CCC(Nc2c(Nc3cccc(CC)c3)c(=O)c2=O)CC1` | 3.162 | rising, single point |

Source: PubChem BioAssay AID912 (NCATS, 2007).